Results are given in words; binding and its absence hold for the method and conditions named. In cells and extracts the contact can be indirect. Some entries that bind do so weakly or less than the wild type. Tags and fused reporters may be left off the sequences shown.

Chains of the proteins cited; added tags and fusions are not shown.
UniProt P68104: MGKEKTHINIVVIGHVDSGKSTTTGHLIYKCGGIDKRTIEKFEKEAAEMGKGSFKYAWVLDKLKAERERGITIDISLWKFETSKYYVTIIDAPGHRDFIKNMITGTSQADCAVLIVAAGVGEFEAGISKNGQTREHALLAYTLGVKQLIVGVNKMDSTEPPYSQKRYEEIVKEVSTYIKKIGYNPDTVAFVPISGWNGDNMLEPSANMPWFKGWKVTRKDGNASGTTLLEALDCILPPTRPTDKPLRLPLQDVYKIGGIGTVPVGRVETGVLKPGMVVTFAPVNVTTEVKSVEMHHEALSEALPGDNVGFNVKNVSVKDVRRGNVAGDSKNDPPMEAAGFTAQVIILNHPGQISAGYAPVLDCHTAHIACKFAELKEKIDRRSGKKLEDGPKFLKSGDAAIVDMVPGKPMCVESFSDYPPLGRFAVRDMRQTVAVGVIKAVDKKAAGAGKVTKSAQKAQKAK

Experiment [1] has as its target HA-eEF1A1 (eukaryotic translation elongation factor 1-alpha 1) (UniProt P68104). Description: co-IP; co-transfected HeLa cells treated with camptothecin (0.2 µM) for 18 hours; whole cell extracts immunoprecipitated with anti-HA (12CA5) antibody; immunoblot with anti-Flag and anti-HA (HA.11).
In experiment [2] the target is T7-eEF1A1 (eukaryotic translation elongation factor 1-alpha 1) (UniProt P68104). In words: co-IP; co-transfected SaOS-2 cells, whole cell extracts immunoprecipitated with anti-T7 antibody; data not shown.
Experiment [3] has the same target. In words: co-IP; co-transfected HeLa (Fig. 1A) or SaOS-2 treated with camptothecin 0.2 µM for 18 hours (Fig. 1B); whole cell extracts in EBC buffer (50 mM Tris pH 8, 120 mM NaCl, 0.5% Nonidet P-40) immunoprecipitated with anti-T7 antibody and protein A-sepharose, 2 h at 4°C; immunoblot with anti-HA. Background: A western blot detects proteins with antibodies after separation by electrophoresis.

B1: Flag-TAp63α (protein, UniProt Q9H3D4-1 1-680)
chain: MNFETSRCATLQYCPDPYIQRFVETPAHFSWKESYYRSTMSQSTQTNEFLSPEVFQHIWDFLEQPICSVQPIDLNFVDEPSEDGATNKIEISMDCIRMQDSDLSDPMWPQYTNLGLLNSMDQQIQNGSSSTSPYNTDHAQNSVTAPSPYAQPSSTFDALSPSPAIPSNTDYPGPHSFDVSFQQSSTAKSATWTYSTELKKLYCQIAKTCPIQIKVMTPPPQGAVIRAMPVYKKAEHVTEVVKRCPNHELSREFNEGQIAPPSHLIRVEGNSHAQYVEDPITGRQSVLVPYEPPQVGTEFTTVLYNFMCNSSCVGGMNRRPILIIVTLETRDGQVLGRRCFEARICACPGRDRKADEDSIRKQQVSDSTKNGDGTKRPFRQNTHGIQMTSIKKRRSPDDELLYLPVRGRETYEMLLKIKESLELMQYLPQHTIETYRQQQQQQHQHLLQKQTSIQSPSSYGNSSPPLNKMNSMNKLPSVSQLINPQQRNALTPTTIPDGMGANIPMMGTHMPMAGDMNGLSPTQALPPPLSMPSTSHCTPPPPYPTDCSIVSFLARLGCSSCLDYFTTQGLTTIYQIEHYSMDDLASLKIPEQFRHAIWKGILDHRQLHEFSSPSHLLRTPSSASTVSVGSSETRGERVIDAVRFTLRQTISFPPRDEWNDFNFDMDARRNKQQRIKEEGE
B1: the binding entry in experiment [1] is recorded as “binds”.

B2: HA-TAp73α (protein, UniProt O15350 1-636)
chain: MAQSTATSPDGGTTFEHLWSSLEPDSTYFDLPQSSRGNNEVVGGTDSSMDVFHLEGMTTSVMAQFNLLSSTMDQMSSRAASASPYTPEHAASVPTHSPYAQPSSTFDTMSPAPVIPSNTDYPGPHHFEVTFQQSSTAKSATWTYSPLLKKLYCQIAKTCPIQIKVSTPPPPGTAIRAMPVYKKAEHVTDVVKRCPNHELGRDFNEGQSAPASHLIRVEGNNLSQYVDDPVTGRQSVVVPYEPPQVGTEFTTILYNFMCNSSCVGGMNRRPILIIITLEMRDGQVLGRRSFEGRICACPGRDRKADEDHYREQQALNESSAKNGAASKRAFKQSPPAVPALGAGVKKRRHGDEDTYYLQVRGRENFEILMKLKESLELMELVPQPLVDSYRQQQQLLQRPSHLQPPSYGPVLSPMNKVHGGMNKLPSVNQLVGQPPPHSSAATPNLGPVGPGMLNNHGHAVPANGEMSSSHSAQSMVSGSHCTPPPPYHADPSLVSFLTGLGCPNCIEYFTSQGLQSIYHLQNLTIEDLGALKIPEQYRMTIWRGLQDLKQGHDYSTAQQLLRSSNAATISIGGSGELQRQRVMEAVHFRVRHTITIPNRGGPGGGPDEWADFGFDLPDCKARKQPIKEEFTEAEIH
For the molecule B2, the binding result in experiment [2] and in experiment [3] was “binds” each time.

The values are drawn from publication PMC3682968.
